Measured values published in PubChem BioAssay AID651640 (Broad Institute, 2012).
In all, about 350,000 compounds went through this assay and about 6,000 (1.7%) were called active. Inconclusive means that the source gave no clear call. Such entries were picked first, then a sample of the others. Cut-off read from the data, not from the text of the source: active = CPE inhibition above about 20% (passing the limit was not always enough); inconclusive = no clear call, values can overlap the other calls; tested in BHK-21 cells.

test: protection of cells from dengue 2 killing – plate reader, single concentration, primary screen (AID 651640); conditions: DENV2-infected cells, cytopathic effect rescue, at 9.99 µM, hits give high values;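 note: 0% = median of neutral control wells and 100% = median of positive control wells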

Compound | CPE inhibition
CC(=O)N1CCCc2cc(S(=O)(=O)Nc3ccc(C)cc3C)ccc21 | inconclusive: 55.7%
C[C@@H]1CN([C@H](C)CO)C(=O)Cc2cc(NS(C)(=O)=O)ccc2O[C@@H]1CN(C)Cc1ccncc1 | inconclusive: 22.7%
CC(C)NC(=O)N(C)C[C@H]1Oc2c(NC(=O)C3CC3)cccc2C(=O)N([C@@H](C)CO)C[C@@H]1C | inconclusive: 26.1%
C[C@@H]1CN([C@H](C)CO)C(=O)c2cc(NC(=O)Nc3ccccc3)ccc2O[C@@H]1CN(C)Cc1ccc(C(=O)Nc2ccccc2N)cc1 | inconclusive: 23.2%
O=C(C[C@@H]1C=C[C@@H](NC(=O)C2CCOCC2)[C@H](CO)O1)NCc1ccncc1 | inactive: -6.22%
C[C@@H]1CCCCO[C@H](CN(C)S(=O)(=O)c2ccccc2)[C@@H](C)CN([C@@H](C)CO)C(=O)c2cc(NC(=O)Nc3ccc(C(F)(F)F)cc3)ccc2O1 | inconclusive: 22.3%
Nc1nsc2ccccc12 | inactive: 0.146%
CN1/C(=C/c2cccc[n+]2C)Sc2ccccc21 | inactive: 3.3%
CCC(=O)Nc1ccc2c(c1)OC[C@@H](C)NC[C@H](C)[C@@H](OC)CN(C)C2=O | active: 27.7%
CC(=O)N1[C@H](CO)[C@H](c2ccccc2)C12CN(C(=O)c1ccc3c(c1)OCO3)C2 | inactive: 0.683%
CO[C@@H]1CN(C)C(=O)c2cc(NS(=O)(=O)CC(F)(F)F)ccc2OC[C@@H](C)N(Cc2ccccn2)C[C@@H]1C | inactive: -1.2%
CC(C)(C)S(=O)N1Cc2cc(C(=O)Nc3ccc(-c4ccccc4)cc3)nc(-c3cccc(-c4cccc(F)c4)c3)c2[C@@H]1CCO (stereo not given in full) | inconclusive: 30.9%
COc1ccc2c3c(n(C)c2c1)[C@@H](CO)N(CC1CCOCC1)CC31CN(Cc2nccs2)C1 | inconclusive: 52.4%
CC(C)NC(=O)NCC[C@@H]1CC[C@H](NS(=O)(=O)c2ccc(Oc3ccccc3)cc2)[C@@H](CO)O1 | inconclusive: 41.5%
COc1cccc(C(NC(C)=O)c2nc(-c3ccc4ccccc4c3)cs2)c1 (stereo not given) | inconclusive: 21.8%
COc1ccccc1CNC(=O)c1ccc(CS(=O)(=O)c2ccccc2C)o1 | inconclusive: 25.6%
CCC(C)[C@H]1CNCCN1CCc1cc(C(F)(F)F)cc(C(F)(F)F)c1 (stereo not given in full) | active: 43.9%
COCC(=O)N(C)C[C@@H]1Oc2ncc(C3=CCCC3)cc2C(=O)N([C@@H](C)CO)C[C@H]1C | inactive: -0.492%
Cc1ccc(S(=O)(=O)N(C)C[C@@H]2OCc3cnnn3CCCC(=O)N([C@H](C)CO)C[C@H]2C)cc1 | inconclusive: 36.6%
CC1CCN(C2=C(NS(=O)(=O)c3ccc(Br)cc3)C(=O)c3ccccc3C2=O)CC1 | inactive: -1.18%
C=CC(C)(C)c1[nH]cnc1/C=C1\NC(=O)C(C(C)C)NC1=O (stereo not given) | inconclusive: 36.3%
CNC[C@@H]1OCCCC[C@H](C)Oc2ccc(NS(=O)(=O)c3ccc(C)cc3)cc2C(=O)N([C@H](C)CO)C[C@@H]1C | inactive: 15%
Cn1ncc([N+](=O)[O-])c1C(=O)Nc1ccccc1C#N | inconclusive: 50.3%
Fc1cccc(F)c1/C=N/Nc1ccccn1 | inactive: -1.3%

Three of the compounds above, comma-delimited.
Compound,CPE inhibition
COc1ccccc1CNC(=O)c1ccc(CS(=O)(=O)c2ccccc2C)o1,inconclusive: 25.6%
CCC(C)[C@H]1CNCCN1CCc1cc(C(F)(F)F)cc(C(F)(F)F)c1 (stereo not given in full),active: 43.9%
COCC(=O)N(C)C[C@@H]1Oc2ncc(C3=CCCC3)cc2C(=O)N([C@@H](C)CO)C[C@H]1C,inactive: -0.492%

The listing continues.

Compound | CPE inhibition
COc1ccc(-c2c(-c3ccsc3)oc(=O)c3cc(OC)c(OC)cc23)cn1 | inconclusive: 51.4%
C[C@H]1CN([C@@H](C)CO)S(=O)(=O)c2ccc(-c3cccnc3)cc2O[C@H]1CN(C)C(=O)NC1CCCCC1 | inconclusive: 25.4%
CCc1cc(C(=O)N2CCCC(C(=O)c3ccc(Cl)cc3)C2)no1 (stereo not given) | inconclusive: 22.3%
Cc1ccccc1S(=O)(=O)N[C@H]1CC[C@@H](CCn2cc(-c3ccc(F)cc3)nn2)O[C@@H]1CO | inactive: 4.13%
COC(=O)C[C@H]1C[C@H]2c3cc(NS(=O)(=O)c4ccc(F)cc4)ccc3O[C@H]2[C@H](CO)O1 | inactive: 4.89%
COc1ccc2c3c([nH]c2c1)[C@@H](CO)N(Cc1nccs1)CC31CN(C(=O)C2CCCC2)C1 | active: 28.6%
COc1cccc(NS(=O)(=O)c2nc3nc(C)cc(C)n3n2)c1 | inconclusive: 37.9%
O=C(C1CCOCC1)N1CC2(C1)[C@H](c1ccccc1)[C@@H](CO)N2Cc1ccc(Cl)cc1 | active: 28.7%
C[C@@H]1CN([C@@H](C)CO)C(=O)c2cc(NS(=O)(=O)c3ccc(Cl)cc3)ccc2O[C@H]1CN(C)C(=O)Nc1ccc(F)cc1 | inconclusive: 20.6%
COc1ccccc1C(=O)NNC(=O)c1ccccc1Br | inconclusive: 39%
CC(C)NC(=O)N(C)C[C@H]1Oc2ccc(NC(=O)c3ccncc3)cc2CC(=O)N([C@H](C)CO)C[C@H]1C | inconclusive: 20.8%
Cc1cccn2c(=O)c(C(=O)NCCCN3CC(C)CC(C)C3)c(O)nc12 (stereo not given) | inconclusive: 35.7%
C[C@H]1CN([C@@H](C)CO)C(=O)c2cccc(NC(=O)C3CCCCC3)c2O[C@@H]1CN(C)C(=O)Nc1ccc2c(c1)OCO2 | active: 58.1%
OC[C@H]1[C@H](c2ccc(Br)cc2)[C@H]2CN(Cc3ccccn3)CCCCN21 | inconclusive: 58.6%
C[C@@H]1CN([C@H](C)CO)C(=O)c2cc(NC(=O)Nc3ccccc3)ccc2O[C@@H](C)CCCCO[C@@H]1CN(C)C(=O)C1CCCCC1 | active: 71.1%
Cc1ccccc1-c1ccc(CN2C(C(C)C)C(=O)N(Cc3cn(CCC4OCCO4)nn3)CCS2(=O)=O)cc1 (stereo not given) | inconclusive: 29.8%
C[C@@H](NC(=O)C[C@@H]1CC[C@H](NC(=O)c2cccnc2)[C@@H](CO)O1)c1ccccc1 | inconclusive: 29.2%
COc1cccc(NC(=O)C(=O)N/N=C/c2cc(C)n(-c3ccc(Cl)c(Cl)c3)c2C)c1 | inactive: 2.69%
C[C@H]1CN([C@@H](C)CO)C(=O)c2cc(NC(=O)Cc3cn(C)c4ccccc34)ccc2O[C@@H]1CN(C)Cc1ccc(Oc2ccccc2)cc1 | inconclusive: 37.3%
O=C(NC1CCCCCCC1)C1c2ccccc2C(=O)N1Cc1cccs1 (stereo not given) | inactive: -2.02%
C[C@H]1CN([C@@H](C)CO)C(=O)CCCn2cc(nn2)CO[C@H]1CN(C)S(=O)(=O)c1ccc(-n2cccn2)cc1 | inactive: -2.71%
C[C@@H](NC(=O)C[C@@H]1CC[C@H](NC(=O)C2CCOCC2)[C@@H](CO)O1)c1ccccc1 | inconclusive: 24.8%
CCCCCCCCN1C(=O)[C@H](CC(=O)NCC23CC4CC(CC(C4)C2)C3)C[C@@]2(C(=O)OCC)CCCC=C12 | active: 20.1%
Cc1[nH]c2ccccc2c1CC(=O)Nc1ccc(Nc2cccnc2)c(-c2ccc(Cl)c(Cl)c2)c1 | inconclusive: 58.1%

Compound | CPE inhibition
COc1ccc(CN(C)C[C@@H]2OCCCC[C@@H](C)Oc3ccc(NC(=O)c4ccccc4)cc3C(=O)N([C@@H](C)CO)C[C@H]2C)cc1 | inconclusive: 25.1%
C/C=C/c1ccc2c(c1)O[C@H](CN(C)C(C)=O)[C@H](C)CN([C@@H](C)CO)S2(=O)=O | active: 45.5%
O=C1NC[C@@H](CCCCN2CCN(CCc3ccc(O)cc3)C(=O)C2=O)N(Cc2ccccc2)C1=O | active: 87.3%
CCSc1nc(O)cc(=O)[nH]1 | inactive: 17.1%
COc1ccc(NC(=O)N[C@@H]2CC[C@H](CC(=O)NC3CCCCC3)O[C@H]2CO)cc1 | inactive: 1.78%
CC(C)C(NC(=O)OCc1ccccc1)C(=O)NC(Cc1ccc(O)cc1)C(=O)O (stereo not given) | inactive: 10.1%
CCN(c1ccccc1)S(=O)(=O)c1cccc(C(=O)NCC(c2ccco2)N2CCCCC2)c1 (stereo not given) | inconclusive: 21.6%
Cn1cc([C@]2(O)C(=O)Nc3ccccc32)c2ccccc21 | active: 31.3%
C[C@@H]1CCCCO[C@H](CN(C)C(=O)Nc2ccc(F)cc2)[C@@H](C)CN([C@H](C)CO)C(=O)c2cc(N(C)C)ccc2O1 | inconclusive: 20.2%
COc1ccc(NC(=O)N2CCC3(CC2)CN(C(=O)CN2CCOCC2)[C@@H](CO)c2[nH]c4cc(OC)ccc4c23)cc1 | active: 24.8%
CC(=O)Nc1c(-c2ccccc2)c2cc(Br)ccc2[nH]c1=O | inconclusive: 24.1%
CN(C)C(=O)c1cccc(-c2ccc([C@@H]3[C@H]4CN(C(=O)C5CCCCC5)CC(=O)N4[C@H]3CO)cc2)c1 | inactive: 3.98%
CCN(CC(=O)Nc1cc(Cl)ccc1C)C(=O)COc1ccccc1F | inactive: 6.15%
CCC(=O)N1CCN(c2ccccc2NC(=O)c2cccs2)CC1 | inconclusive: 21.1%
Cc1noc(C)c1NC(=O)Nc1ccc2c(c1)C(=O)N([C@@H](C)CO)C[C@H](C)[C@H](CN(C)C)OCCCC[C@H](C)O2 | inconclusive: 28.9%
CC(=O)Nc1cc(-c2ccccc2)cn2c(-c3ccc(F)cc3)cnc12 | inconclusive: 70.2%
COc1ccccc1N1CCN(C(=O)c2cccc(C(=O)N3CCN(c4ccccc4OC)CC3)c2)CC1 | inactive: -1.3%
Cc1cc[n+](CC(=O)c2ccc(NC(=O)c3ccccc3)cc2)c2ccccc12 | inconclusive: 55.5%
Cc1ccc(S(=O)(=O)N2CCCCC2)cc1C(=O)OC(C)C(=O)NCC1CCCCC1 (stereo not given) | inconclusive: 46.9%
C[C@@H]1CN([C@@H](C)CO)C(=O)Cc2cc(NC(=O)Cc3ccccc3)ccc2O[C@H]1CN(C)S(=O)(=O)c1ccc(F)cc1 | inactive: -4.84%
Cc1ccc(-c2ccc([C@@H]3[C@H]4CN(C(=O)c5cccnc5)CC(=O)N4[C@H]3CO)cc2)cc1 | inactive: 4.86%
COc1ccc2[nH]c3c(c2c1)CCN1C(=O)C(CC(=O)NCCN2CCOCC2)C[C@H](C(=O)N2CCCCC2)[C@@]31C (stereo not given in full) | inconclusive: 33.5%
